Data on one substance can be found in PMC8940927.

Sequences of proteins named here, by UniProt entry; tags and fusion partners are left off.
UniProt P31596: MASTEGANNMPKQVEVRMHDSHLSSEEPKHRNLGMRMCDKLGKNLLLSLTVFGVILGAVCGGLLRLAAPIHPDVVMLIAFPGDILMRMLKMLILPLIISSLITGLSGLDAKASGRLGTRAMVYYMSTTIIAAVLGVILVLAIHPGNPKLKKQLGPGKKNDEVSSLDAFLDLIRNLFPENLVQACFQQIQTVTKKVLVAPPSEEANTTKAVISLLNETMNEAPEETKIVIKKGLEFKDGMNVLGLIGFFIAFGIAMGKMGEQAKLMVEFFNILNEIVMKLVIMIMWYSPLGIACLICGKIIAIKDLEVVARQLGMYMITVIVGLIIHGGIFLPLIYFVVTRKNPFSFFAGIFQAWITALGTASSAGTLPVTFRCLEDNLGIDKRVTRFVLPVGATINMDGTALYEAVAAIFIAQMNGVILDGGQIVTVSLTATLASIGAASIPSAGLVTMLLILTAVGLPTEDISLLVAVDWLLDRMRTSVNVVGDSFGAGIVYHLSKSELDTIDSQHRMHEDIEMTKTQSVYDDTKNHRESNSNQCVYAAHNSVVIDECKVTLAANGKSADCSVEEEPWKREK

Results are given in words; binding and its absence hold for the method and conditions named. In cells and extracts the contact can be indirect. Some binding calls cover weakened binding; strength is not graded here.

In the assay the target is GST-PKCα (UniProt P05696). Kind of assay: pull-down; GST pull-down; bait protein GST-PKCα, prey protein HA-GLT-1; immunoblots of the precipitates.

Take HA-GLT-1 (from UniProt P31596 1-573): the binding entry was “binds”.
